The chains behind the UniProt entries cited, without tags or fusion partners.
UniProt P18054, whole entry, looked up: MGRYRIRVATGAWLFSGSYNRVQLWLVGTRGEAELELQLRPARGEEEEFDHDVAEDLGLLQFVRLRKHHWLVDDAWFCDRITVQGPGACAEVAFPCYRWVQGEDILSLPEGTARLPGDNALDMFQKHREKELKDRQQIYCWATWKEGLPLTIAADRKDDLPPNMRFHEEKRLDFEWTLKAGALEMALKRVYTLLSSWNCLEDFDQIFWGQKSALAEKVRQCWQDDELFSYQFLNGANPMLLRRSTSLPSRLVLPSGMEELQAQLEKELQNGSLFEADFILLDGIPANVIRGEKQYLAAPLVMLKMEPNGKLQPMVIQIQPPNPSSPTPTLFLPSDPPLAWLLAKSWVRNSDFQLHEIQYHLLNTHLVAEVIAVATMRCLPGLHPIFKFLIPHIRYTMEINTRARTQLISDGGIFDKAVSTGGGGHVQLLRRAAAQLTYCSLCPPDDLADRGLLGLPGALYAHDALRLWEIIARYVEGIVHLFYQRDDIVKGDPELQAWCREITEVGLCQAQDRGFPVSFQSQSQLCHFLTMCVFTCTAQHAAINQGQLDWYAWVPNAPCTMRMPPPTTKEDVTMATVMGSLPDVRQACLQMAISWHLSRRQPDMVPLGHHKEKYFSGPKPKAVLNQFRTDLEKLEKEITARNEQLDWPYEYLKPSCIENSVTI

Several values for one entry are separate records, joined by “and”; a condition that tells them apart may be missing. Equal values may be shown once. Hit rate of the full screen: of about 580,000 compounds, about 6,100 (1.1%) were called active. Inconclusive means that the source gave no clear call. Such entries were picked first, then a sample of the others. Calls follow the shape of the dose curve; as a rule, active = well fitted inhibition curve with a large enough effect; inconclusive = small, poorly fitted or top-dose-only effect, or another doubt; inactive = no such curve, though single readings can be large or run the other way. Potencies beside an inconclusive call are fits to weak or partial responses and may not hold up.
The molecules below were run against Polyunsaturated fatty acid lipoxygenase ALOX12 (Homo sapiens) (UniProt P18054) (assay: Primary qHTS assay for inhibitors of human arachidonate 12S-lipoxygenase (ALOX12): Round 2). Settings: purified 12hLO, xylenol orange hydroperoxide absorbance; series mostly up to 108 µM.
How it was run: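 Purified human 12hLO at 150 nM in 25 mM Hepes, 0.01% Triton X-100, pH 7.0, preincubated 15 min at room temperature with compound. Reaction started with 40 uM arachidonic acid, 30 min at room temperature. Hydroperoxide measured by Fe-xylenol orange, 573/405 nm absorbance ratio.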
With `COc1ccc(NC(=O)CN(C)C(=O)c2ccc3c(c2)CC(c2ccccc2)OC3=O)cc1` (centres undefined) the Potency was inconclusive: 44.7 µM [inhibitor, partial curve, poor fit]. With `CCCCN(Cc1ccccc1)c1ccc(C(=O)O)cc1NS(=O)(=O)c1ccc(C)c(C)c1` the Potency was active: 8.91 µM. With `CCNc1c(NC(=O)NCCc2ccccc2)c(=O)oc2ccccc12` the Potency was inconclusive: 31.6 µM [inhibitor, single point]. With `CCN(CC)S(=O)(=O)c1ccc(N/N=C/c2ccc(C)s2)c([N+](=O)[O-])c1` the Potency was “inactive”. With `CN(C)S(=O)(=O)c1ccc(-c2csc(N/N=C/c3ccc(O)cc3)n2)cc1` the Potency was inconclusive: 100 µM [inhibitor, partial curve, poor fit]. In the case of `CCN(CC)C(=O)CCc1c(C)nn(-c2ccccc2C)c1Oc1cccc(F)c1`, the Potency is reported as inconclusive: 56.2 µM [inhibitor, partial curve, poor fit]. For `COc1ccc(-c2cc(NC(=O)c3cccnc3)n(C3CCS(=O)(=O)C3)n2)cc1` (centres undefined), the Potency was “inactive”. With `O=C(CN1C(=O)NC(c2ccccc2Cl)C2=C1COC2=O)NCCc1ccc(Cl)cc1` (centres undefined) the Potency was inconclusive: 89.1 µM [inhibitor, single point]. For `NS(=O)(=O)c1ccc(Nc2nc3ccccc3nc2NS(=O)(=O)c2cccc([N+](=O)[O-])c2)cc1`, the Potency was inconclusive: 56.2 µM [inhibitor, partial curve, poor fit]. For `CCOc1cccc(C(=O)NC(=S)Nc2cccc(NC(=O)c3ccccc3Cl)c2)c1`, the Potency was active: 11.2 µM. With `COc1cc(C(=O)OCC(=O)NC(=O)NCc2ccco2)cc(OC)c1C` the Potency was inconclusive: 39.8 µM [inhibitor, partial curve, poor fit]. For `Cc1cc(C(=O)CSc2nc3cc(S(N)(=O)=O)ccc3n2C)c(C)n1C1CC1`, the Potency was inconclusive: 126 µM [inhibitor, single point]. For `O=C(CCn1c(=O)c2cccn2c2cccnc21)NCc1cccc(Br)c1`, the Potency was inconclusive: 50.1 µM [inhibitor, partial curve, poor fit]. With `CC(=O)c1cc2c(cc1N/C(=N/S(=O)(=O)c1ccc(C)cc1)c1ccc(Cl)cc1)OCO2` the Potency was “inactive and inconclusive: 50.1 µM [inhibitor, partial curve, poor fit]”. For `O=C(NNC(=S)NC(=O)c1ccco1)c1ccc(NC(=O)c2ccccc2)cc1`, the Potency was inconclusive: 39.8 µM [inhibitor, partial curve]. In the case of `O=C(Cc1ccc(Cl)cc1Cl)Nc1ccncc1`, the Potency is reported as “inactive”. In the case of `C=CCOc1ccc(/C=C2\SC(=Nc3cccnc3)NC2=O)cc1`, the Potency is reported as “inactive”. With `NC(=O)c1nn(-c2cccc(Cl)c2)c(=O)cc1O` the Potency was inconclusive: 22.4 µM [inhibitor, full curve, poor fit]. For `COc1cc2c(cc1OC)C(c1ccc([N+](=O)[O-])cc1)N(C(C)=O)CC2` (centres undefined), the Potency was inconclusive: 39.8 µM [inhibitor, partial curve, poor fit]. With `Cc1ccc(Cn2ncc3c(N4CCN(C)CC4)ncnc32)cc1` the Potency was “inactive”. In the case of `CC1OC2CC(=O)OC2C2=C1C(=O)c1c(O)cccc1C2=O` (centres undefined), the Potency is reported as inconclusive: 44.7 µM [inhibitor, partial curve, poor fit]. `COc1ccc(OC)c(C2CC(=O)Nc3ccc4ccccc4c32)c1` (centres undefined) was tested, and the Potency was inconclusive: 141 µM [inhibitor, partial curve, poor fit]. For `CCCS(=O)(=O)c1ccc(COC(=O)c2ccc(NC(C)=O)cc2)cc1`, the Potency was “inactive”. For `COc1ccc(-c2cn3c(n2)sc2cc(C(=O)NCc4ccccc4)ccc23)cc1`, the Potency was “inactive”. In the case of `CCOc1c(Br)cc(/C=C/c2ncc(C(=O)O)s2)cc1OC`, the Potency is reported as inconclusive: 44.7 µM [inhibitor, partial curve, poor fit]. In the case of `COCCCNC(=O)Cc1c(C)c2c(OC)cc(C)cc2oc1=O`, the Potency is reported as inconclusive: 141 µM [inhibitor, single point]. With `CC1Cc2cc(S(=O)(=O)CCC(=O)Nc3ccc(OC(F)(F)F)cc3)ccc2N1C(=O)C1CC1` (centres undefined) the Potency was “inactive”. `C[C@@H]1CN([C@@H](C)CO)C(=O)c2cc(NS(=O)(=O)c3ccc(Cl)cc3)ccc2O[C@H]1CN(C)Cc1ccncc1` was tested, and the Potency was inconclusive: 50.1 µM [inhibitor, partial curve, poor fit]. For `Cc1ccc(Cn2ncc3c(N4CCN(CCc5ccccc5)CC4)ncnc32)cc1`, the Potency was “inactive”. `O=C(Nc1ccc(Br)c(Cl)c1)C1CC1` was tested, and the Potency was “inactive”. `CC(=O)N1CCCN(C(=O)c2cc(COc3c(F)cccc3F)on2)CC1` was tested, and the Potency was inconclusive: 112 µM [inhibitor, partial curve, poor fit]. In the case of `Cc1ccc(Nc2nnc(C(C)(C)C)c(=O)n2N)cc1`, the Potency is reported as inconclusive: 10 µM [inhibitor, partial curve, poor fit]. `S=c1[nH]c2ccccc2s1` was tested, and the Potency was inconclusive: 8.27 µM [inhibitor, partial curve] and active: 28.2 µM. For `CCOc1ccc(/C=C/c2nc(C#N)c(N(C)Cc3ccccc3)o2)cc1`, the Potency was “inactive”. For `CCn1ncc(N2CCC(NC(=O)c3sccc3C)CC2)cc1=O`, the Potency was “inactive”. `COc1cc(C(=O)NCCSc2c(C)[nH]c3ccccc23)cc(OC)c1OC` was tested, and the Potency was inconclusive: 56.2 µM [inhibitor, partial curve, poor fit]. With `Cc1ccc(NS(=O)(=O)c2cc(NC(=O)c3ccc4c(c3)NC(=O)CS4)ccc2Cl)c(C)c1` the Potency was inconclusive: 39.8 µM [inhibitor, partial curve]. For `O=C(COC(=O)c1cc(-c2cccs2)nc2ccccc12)c1ccc(Cl)cc1`, the Potency was inconclusive: 126 µM [inhibitor, partial curve, poor fit]. For `COc1cccc(CN2CCN(S(=O)(=O)c3ccc(NC(C)=O)cc3)CC2)c1OC`, the Potency was inconclusive: 0.126 µM [inhibitor, full curve, poor fit]. `COc1ccccc1NC(=S)N1CCCc2ccccc21` was tested, and the Potency was inconclusive: 89.1 µM [inhibitor, partial curve, poor fit]. With `Cc1c(C)c2cc(Cl)c(OC(C)C(=O)NCc3cccnc3)cc2oc1=O` (centres undefined) the Potency was “inactive”. With `COc1ccc(N2CCN(S(=O)(=O)CCNC(=O)c3ccc(Br)o3)CC2)cc1` the Potency was “inactive”. `COc1ccccc1OCC(=O)Nc1cc(S(=O)(=O)N2CCOCC2)ccc1N1CCCCC1` was tested, and the Potency was inconclusive: 31.6 µM [inhibitor, partial curve, poor fit]. `CCOc1ccc2nc(N(CCCN(C)C)C(=O)c3ccc4c(c3)CCCC4)sc2c1` was tested, and the Potency was inconclusive: 70.8 µM [inhibitor, partial curve, poor fit]. For `COC(=O)c1ccc(C)c(NC(=O)CCCN2C(=O)CN(C)C2=O)c1`, the Potency was inconclusive: 44.7 µM [inhibitor, partial curve, poor fit]. In the case of `COc1ccc(-c2noc(C3CC(=O)N(c4ccc5c(c4)OCCO5)C3)n2)c(OC)c1` (centres undefined), the Potency is reported as inconclusive: 100 µM [inhibitor, partial curve, poor fit]. In the case of `Oc1ccc(-c2cc3c(cn2)CN(Cc2ccccc2)CCN3)cc1F`, the Potency is reported as inconclusive: 31.6 µM [inhibitor, full curve]. In the case of `CCOC(=O)c1cc2c(Cl)cc(Cl)cc2[nH]1`, the Potency is reported as inconclusive: 50.1 µM [inhibitor, partial curve, poor fit]. With `CC(C)(C)c1ccc(-c2nnc(SCC(=O)NCc3cccs3)n2Cc2ccco2)cc1` the Potency was “inactive”. `CCCCCc1c(C)nc(Nc2ccccc2)[nH]c1=O` was tested, and the Potency was inconclusive: 89.1 µM [inhibitor, single point]. With `Cc1ccc(N(CCC#N)C(=O)COC(=O)C2CCN(c3ccc(C(F)(F)F)cn3)CC2)cc1` the Potency was inconclusive: 89.1 µM [inhibitor, partial curve, poor fit]. In the case of `CCOC(=O)c1ccc(-c2ccc3ncnc(N(C)Cc4sccc4C)c3c2)o1`, the Potency is reported as inconclusive: 39.8 µM [inhibitor, partial curve, poor fit]. With `CCCOc1ccc(C2CC(=O)NC2=O)cc1` (centres undefined) the Potency was inconclusive: 141 µM [inhibitor, single point]. With `O=C(COC(=O)c1ccccc1O)NC(=O)NCc1ccccc1` the Potency was inconclusive: 56.2 µM [inhibitor, partial curve, poor fit]. In the case of `CC(C)(C)CN1CCNC[C@H]1Cc1ccc(O)cc1`, the Potency is reported as inconclusive: 126 µM [inhibitor, single point]. In the case of `COc1cccc(NC(=O)COC(=O)c2ccccc2C(=O)N(C)c2ccccc2)c1`, the Potency is reported as “inactive”. With `OCCCCNc1cccc2ccccc12` the Potency was inconclusive: 25.1 µM [inhibitor, partial curve]. In the case of `O=S(=O)(c1ccccc1Cl)N1CCCC1c1nncn1Cc1ccncc1` (centres undefined), the Potency is reported as “inactive”. With `C[C@H](NC(=O)Cn1ccc2cc(OCc3ccccc3)ccc21)C(=O)O` the Potency was inconclusive: 100 µM [inhibitor, single point]. For `O=C(NC1CCCCC1)OCCN1CCN(Cc2ccccc2)CCC1=O`, the Potency was inconclusive: 0.631 µM [inhibitor, full curve, poor fit]. `CN(C)c1ccc(NC(=O)c2ccc(N(C)C)cc2)cc1` was tested, and the Potency was inconclusive: 50.1 µM [inhibitor, partial curve, poor fit]. `Cn1c2c(c(=O)[nH]c1=O)C(c1ccc(O)cc1)C1=C(N2)c2ccccc2C1=O` (centres undefined) was tested, and the Potency was inconclusive: 50.1 µM [inhibitor, single point]. With `O=C(CCSCc1ccccc1F)N1CCN(c2ccc(F)cc2)CC1` the Potency was inconclusive: 70.8 µM [inhibitor, partial curve, poor fit]. In the case of `Cc1cccc(CN2C(=O)/C(=C\c3ccc(C(=O)NCCCN4CCN(C)CC4)cc3)Oc3ccccc32)c1`, the Potency is reported as inconclusive: 44.7 µM [inhibitor, partial curve, poor fit].
Potency is read from the fitted curve at half-maximal effect.
